From publication PMC4882052
These are yes or no findings as the source states them, for the method shown. Binding seen in cells or lysates may run through a third protein. Some results given as binding are weak or reduced against the parent protein; the word gives no strength.

Amino acid sequences for entries named in this document (tags omitted). A change or cut given only in a name is not applied to a line headed by its entry. Chains listed by the source or under a name are the forms on record and can include a tag or linker.
UniProt P62962: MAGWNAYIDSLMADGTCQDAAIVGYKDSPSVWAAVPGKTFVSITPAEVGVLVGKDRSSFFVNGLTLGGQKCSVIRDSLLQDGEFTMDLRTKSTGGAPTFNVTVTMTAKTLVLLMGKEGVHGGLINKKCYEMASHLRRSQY
GST-Pfn1 S57D (phosphomimetic Mus musculus Profilin-1) (P62962, form named): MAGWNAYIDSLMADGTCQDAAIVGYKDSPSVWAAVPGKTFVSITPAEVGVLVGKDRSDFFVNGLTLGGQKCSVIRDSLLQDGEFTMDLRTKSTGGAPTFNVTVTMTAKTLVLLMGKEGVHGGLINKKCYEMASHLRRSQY
GST-Pfn1 S91D (phosphomimetic Mus musculus Profilin-1) (P62962, form named): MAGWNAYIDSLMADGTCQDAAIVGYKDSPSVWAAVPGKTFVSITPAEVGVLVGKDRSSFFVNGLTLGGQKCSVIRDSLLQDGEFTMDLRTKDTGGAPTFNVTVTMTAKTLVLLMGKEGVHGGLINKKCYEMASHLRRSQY
GST-Pfn1 T92D (phosphomimetic Mus musculus Profilin-1) (P62962, form named): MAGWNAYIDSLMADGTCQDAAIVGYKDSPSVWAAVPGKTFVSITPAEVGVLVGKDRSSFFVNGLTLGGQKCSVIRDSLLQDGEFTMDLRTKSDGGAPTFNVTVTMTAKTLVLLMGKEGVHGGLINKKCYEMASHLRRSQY
UniProt P50552: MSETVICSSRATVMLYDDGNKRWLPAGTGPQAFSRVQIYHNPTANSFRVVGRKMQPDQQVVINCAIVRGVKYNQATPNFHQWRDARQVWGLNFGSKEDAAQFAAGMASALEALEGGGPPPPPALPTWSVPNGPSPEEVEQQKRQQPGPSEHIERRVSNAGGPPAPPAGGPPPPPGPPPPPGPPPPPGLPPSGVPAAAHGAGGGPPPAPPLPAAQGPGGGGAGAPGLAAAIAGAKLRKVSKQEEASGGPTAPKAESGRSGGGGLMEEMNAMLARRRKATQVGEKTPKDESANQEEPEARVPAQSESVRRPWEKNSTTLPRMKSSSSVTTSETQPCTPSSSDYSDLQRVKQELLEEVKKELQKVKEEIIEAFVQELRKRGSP

Assays:
Assay in all cases: pull-down; GST-Pfn1 forms on glutathione-agarose beads (washed 5 times) incubated with HEK-293 lysate overnight at 4°C; lysis buffer 25mM Tris-base pH 7.4, 150mM NaCl, 1% NP-40, 1mM EDTA, 5% glycerol; immunoblot with anti-actin and anti-VASP; qualitative; only the target purified
[1] = molecular target: GST-Pfn1 S57D (phosphomimetic Mus musculus Profilin-1) (Mus musculus) (UniProt P62962)
[2] = molecular target: GST-Pfn1 S91D (phosphomimetic Mus musculus Profilin-1) (Mus musculus) (UniProt P62962)
[3] = molecular target: GST-Pfn1 (wild-type Mus musculus Profilin-1) (Mus musculus) (UniProt P62962)
[4] = molecular target: GST-Pfn1 T92D (phosphomimetic Mus musculus Profilin-1) (Mus musculus) (UniProt P62962)

Measured: binding

VASP (from UniProt P50552 1-380)
binds: all assays above
